{
  "source": "patent EP0207497A2",
  "about": "“Quinolonecarboxylic acid derivative and process for its preparation” (KYORIN PHARMACEUTICAL CO., LTD., priority 1985, dated 1987)",
  "system": "F. varium KYA 8501",
  "assay": "Antibacterial spectrum, MIC determination (method of Japan Society of Chemotherapy)",
  "type": "cell-based",
  "conditions": "Fusobacterium varium, KYA8501",
  "data": [
    {"smiles": "O=C(O)c1cn(C2CC2)c2cc(N3CCNCC3)c(F)cc2c1=O", "note": "[CPFX, ciprofloxacin, reference compound]", "values": [
      {"measurement": "MIC", "result": "> 12.5", "unit": "µg/mL"}
    ]}
  ]
}
